Assay results as given in PubChem BioAssay AID192 (DTP/NCI, 2004).
The list does not hold the whole screen: it gathers tests that were run many times, whatever their T/C, doses with no T/C, and many T/C values between a quarter and a half above the control. Further doses and runs are listed elsewhere. T/C gives the treated animals as a percentage of the vehicle group. Some doses have a count of surviving animals in place of a T/C: the source files T/C as zero there, which appears to mark a toxic dose or a test without result, not a measured value. Some doses without a T/C left all or most animals alive at the check, yet need not have been tolerated: survival well below the control is almost never listed, so the zero probably covers shortened survival too. Survivors were counted at the toxicity check, usually on the fifth day, unless a day is given; later deaths do not show. Schedule codes are those of the source, read here as Q, the interval in days (D) or hours (H), X, the number of doses. Some doses were run more than once; the results are listed from low to high. Some structures stand for samples that the source files as different forms (salt, stereo form or complex); doses refer to the form tested. Marks such as (2×) stand for listed records that agree. For survival time, this PubChem deposit counts one and a half times the control or more as active, and values a quarter to a half above the control carry no call in these data; other NCI protocols may use other cut-offs. Some T/C values are followed by the survivors on the day toxicity was checked, most often the fifth; without a count, all were alive then.

Tested on: BDF1 mice, B16 melanoma ip, median survival T/C
Assay: NCI In Vivo Anticancer Drug Screen. Data for tumor model B16 Melanoma (intraperitoneal) in B6D2F1 (BDF1) mice
Settings: T/C endpoint: median survival time, higher T/C = longer survival
Outline: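 Tumor-bearing mice received test compound or vehicle. Survival or tumor size was then measured in both groups. The treated-group figure was divided by the control-group figure.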

[1] = dose: 200.0 mg/kg/injection, schedule: Q01DX009 (ip), vehicle: saline with Tween-80
[2] = dose: 400.0 mg/kg/injection, schedule: Q01DX009 (ip), vehicle: saline with Tween-80
[3] = dose: 25.0 mg/kg/injection, schedule: Q01DX009 (ip), vehicle: saline
[4] = dose: 50.0 mg/kg/injection, schedule: Q01DX009 (ip), vehicle: saline
[5] = dose: 100.0 mg/kg/injection, schedule: Q01DX009 (ip), vehicle: saline
[6] = dose: 200.0 mg/kg/injection, schedule: Q01DX009 (ip), vehicle: saline
[7] = dose: 400.0 mg/kg/injection, schedule: Q01DX009 (ip), vehicle: saline
[8] = dose: 8.0 mg/kg/injection, schedule: Q01DX009 (ip), vehicle: saline
[9] = dose: 6.25 mg/kg/injection, schedule: Q01DX009 (ip), vehicle: saline
[10] = dose: 3.12 mg/kg/injection, schedule: Q01DX009 (ip), vehicle: saline

CCN(CC)CCCNc1nccc2c(C)c3[nH]c4ccncc4c3cc12
T/C (dose: 0.19 mg/kg/injection, schedule: Q01DX009 (ip), vehicle: other): 125 % of control
survivor count (dose: 12.0 mg/kg/injection, schedule: Q01DX009 (ip), vehicle: other): 8 of 10

CC1=Cc2ccc(C)cc2C(=O)C1=O
survivor count (dose: 3.13 mg/kg/injection, schedule: Q01DX009 (ip), vehicle: Klucel (hydroxypropylcellulose) (HPC)): 0 of 10
survivor count (dose: 6.25 mg/kg/injection, schedule: Q01DX009 (ip), vehicle: Klucel (hydroxypropylcellulose) (HPC)): 0 of 10
survivor count (dose: 12.5 mg/kg/injection, schedule: Q01DX009 (ip), vehicle: Klucel (hydroxypropylcellulose) (HPC)): 0 of 10

OC(Cc1nc(-c2ccccc2)c(-c2ccccc2)s1)(C(F)(F)F)C(F)(F)F
survivor count (dose: 400.0 mg/kg/injection, schedule: Q04DX003 (ip), vehicle: saline with Tween-80): 10 of 10

CC(O)C(=O)[O][Hg][c]1ccccc1 (stereo unspecified)
survivor count (dose: 10.0 mg/kg/injection, schedule: Q01DX009 (ip), vehicle: saline with Tween-80): 9 of 10

COC(=O)C1(C(=O)OC)CCCCC1=O
survivor count (dose: 400.0 mg/kg/injection, schedule: Q04DX003 (ip), vehicle: Klucel (hydroxypropylcellulose) (HPC)): 10 of 10

O=C(O)C1CCCCC1C(=O)Nc1ccc(F)cc1 (stereo unspecified)
survivor count [1]: 8 of 10
survivor count [2]: 10 of 10

COc1cccc2c1C(=O)c1c(O)c3c(c(O)c1C2=O)C[C@@](O)(/C(C)=N\NC(=O)CO)C[C@@H]3OC1CC(N)C(O)C(C)O1 (stereo partly specified)
T/C (dose: 0.78 mg/kg/injection, schedule: Q01DX009 (ip), vehicle: saline): 136 % of control
survivor count [3]: 7 of 10 and 6 of 6
survivor count (dose: 40.0 mg/kg/injection, schedule: Q01DX001 (ip), vehicle: water): 10 of 10
survivor count [4]: 0 of 6

Nc1[nH]c(=O)nc2nc[nH]c12
survivor count [5]: 6 of 10
survivor count [6]: 4 of 10
survivor count [7]: 3 of 10

NC1CC1c1ccccc1 (stereo unspecified)
survivor count [4]: 4 of 10

CC(C)NNC(=O)C(C)O (stereo unspecified)
survivor count [5]: 8 of 10
survivor count [7]: 10 of 10

CCCCCCCCCCCCCCCCCC(=O)OCC(=O)OCC(=O)[C@]1(O)Cc2c(O)c3c(c(O)c2[C@@H](OC2CC(N)C(O)C(C)O2)C1)C(=O)c1c(OC)cccc1C3=O (stereo partly specified)
T/C (dose: 7.5 mg/kg/injection, schedule: Q01DX001 (ip), vehicle: water): 128 % of control
T/C (dose: 15.0 mg/kg/injection, schedule: Q01DX001 (ip), vehicle: water): 147 % of control
survivor count (dose: 60.0 mg/kg/injection, schedule: Q01DX001 (ip), vehicle: water): 7 of 10 and 10 of 10
survivor count (dose: 120.0 mg/kg/injection, schedule: Q01DX001 (ip), vehicle: water): 4 of 10 and 10 of 10

C[N+](C)([O-])CCC=C1c2ccccc2CCc2ccccc21
survivor count [3]: 10 of 10
survivor count [5]: 8 of 10

CCC(=O)Oc1ccc(/C=N/NC(N)=S)nc1
T/C [3]: 128 % of control
T/C [5]: 133 % of control
survivor count [6]: 10 of 10
survivor count [7]: 10 of 10

CC1(C)N=C(N)N=C(N)N1c1ccc(OCCOc2ccc(S(=O)(=O)F)cc2)c(Cl)c1
T/C (dose: 50.0 mg/kg/injection, schedule: Q04DX003 (ip), vehicle: saline): 128 % of control
T/C (dose: 100.0 mg/kg/injection, schedule: Q04DX003 (ip), vehicle: saline): 142 % of control
survivor count (dose: 200.0 mg/kg/injection, schedule: Q04DX003 (ip), vehicle: saline): 6 of 6

CC[C@H]1CN2CCc3cc(OC)c(OC)cc3[C@@H]2C[C@@H]1C[C@H]1NCCc2cc(O)c(OC)cc21
T/C (dose: 2.0 mg/kg/injection, schedule: Q01DX009 (ip), vehicle: saline): 127 % of control
T/C (dose: 4.0 mg/kg/injection, schedule: Q01DX009 (ip), vehicle: saline + alcohol): 130 % of control
T/C (dose: 4.0 mg/kg/injection, schedule: Q01DX009 (ip), vehicle: saline): 141 % of control [9 of 10 alive]
T/C [8]: 130 and 138 % of control [9 of 10 alive]
survivor count [8]: 10 of 10
survivor count (dose: 16.0 mg/kg/injection, schedule: Q01DX009 (ip), vehicle: saline + alcohol): 10 of 10
survivor count (dose: 16.0 mg/kg/injection, schedule: Q01DX009 (ip), vehicle: saline): 6 of 10 and 10 of 10 (2×)
survivor count (dose: 32.0 mg/kg/injection, schedule: Q01DX009 (ip), vehicle: saline): 3 of 10
T/C (dose: 64.0 mg/kg/injection, schedule: Q04DX003 (ip), vehicle: alkali diluted with saline): 137 % of control
survivor count (dose: 128.0 mg/kg/injection, schedule: Q04DX003 (ip), vehicle: alkali diluted with saline): 3 of 8

Nc1ncnc2c1ncn2C1OC(CO)CC1O (stereo unspecified)
survivor count (dose: 150.0 mg/kg/injection, schedule: Q01DX009 (ip), vehicle: Klucel (hydroxypropylcellulose) (HPC)): 7 of 10 and 9 of 10
survivor count (dose: 300.0 mg/kg/injection, schedule: Q01DX009 (ip), vehicle: Klucel (hydroxypropylcellulose) (HPC)): 6 of 10 and 8 of 10

CCCCN(C)/N=N/c1nc[nH]c1C(N)=O
survivor count (dose: 40.0 mg/kg/injection, schedule: Q01DX009 (ip), vehicle: carboxymethylcellulose (CMC)): 6 of 6
survivor count (dose: 80.0 mg/kg/injection, schedule: Q01DX009 (ip), vehicle: carboxymethylcellulose (CMC)): 6 of 6
survivor count (dose: 100.0 mg/kg/injection, schedule: Q01DX009 (ip), vehicle: saline with Tween-80): 10 of 10
survivor count (dose: 160.0 mg/kg/injection, schedule: Q01DX009 (ip), vehicle: carboxymethylcellulose (CMC)): 3 of 6
survivor count [1]: 10 of 10

CN=C1CN(O)C(c2ccccc2)=c2cc(Cl)ccc2=N1
T/C [9]: 126 % of control [9 of 10 alive]
T/C [3]: 144 % of control [9 of 10 alive]
survivor count [4]: 10 of 10
survivor count [6]: 4 of 10

CSc1ccc2c(c1)N(CCCN(C)C)c1ccccc1S2
T/C [10]: 148 % of control

CC(=O)CC(=O)Nc1cc(C)c(NC(=O)CC(C)=O)cc1C
survivor count (dose: 400.0 mg/kg/injection, schedule: Q01DX009 (ip), vehicle: Klucel (hydroxypropylcellulose) (HPC)): 10 of 10

CC1=C(C)C(=O)O[C@@H]([C@](C)(O)[C@]2(O)CC[C@@]3(O)[C@@H]4C[C@H]5O[C@]56CC=CC(=O)[C@]6(C)[C@H]4CC[C@]23C)C1
T/C [10]: 130 % of control
T/C [9]: 141 % of control
T/C (dose: 12.5 mg/kg/injection, schedule: Q01DX009 (ip), vehicle: saline): 147 % of control

C=C(C)[C@H]1Cc2c(ccc3c2O[C@@H]2COc4cc(OC)c(OC)cc4[C@@H]2C3=O)O1
survivor count (dose: 16.0 mg/kg/injection, schedule: Q01DX009 (ip), vehicle: saline with Tween-80): 7 of 10
survivor count (dose: 32.0 mg/kg/injection, schedule: Q01DX009 (ip), vehicle: saline with Tween-80): 0 of 10 and 1 of 10
survivor count (dose: 64.0 mg/kg/injection, schedule: Q01DX009 (ip), vehicle: saline with Tween-80): 0 of 10

N=c1ccn2c(n1)OC1C(O)C(CO)OC12 (stereo unspecified)
T/C [5]: 126 % of control
T/C [6]: 128 % of control
survivor count (dose: 800.0 mg/kg/injection, schedule: Q01DX009 (ip), vehicle: saline sonified): 6 of 6
survivor count (dose: 800.0 mg/kg/injection, schedule: Q01DX009 (ip), vehicle: saline): 5 of 8 and 10 of 10

C[C@@H]1CC[C@]2(C)CC[C@]3(C)C(=CC[C@@H]4[C@@]5(C)CC[C@@H](OC(=O)c6ccc(O)cc6)C(C)(C)[C@@H]5C[C@H](O)[C@]43C)[C@@H]2[C@H]1C(=O)O
survivor count (dose: 0.2 mg/kg/injection, schedule: Q01DX009 (ip), vehicle: saline with Tween-80): 10 of 10

COc1cccc2c1C(=O)c1c(O)c3c(c(O)c1C2=O)C[C@@](O)(C(=O)CO)C[C@@H]3OC1CC([N+](C)(C)C)C(O)C(C)O1 (stereo partly specified)
T/C (dose: 18.0 mg/kg/injection, schedule: Q01DX001 (ip), vehicle: water): 125 % of control [7 of 8 alive]
T/C (dose: 20.0 mg/kg/injection, schedule: Q04DX003 (ip), vehicle: water): 131 % of control

O=CCC(O)C(O)C(O)CO (stereo unspecified)
survivor count (dose: 2400.0 mg/kg/injection, schedule: Q01DX009 (ip), vehicle: suspension in saline): 0 of 10

CC(=O)NC(CO)C(=O)c1ccc(S(=O)(=O)c2ccccc2)cc1 (stereo unspecified)
survivor count [2]: 10 of 10
